Structures can show the parent of a compound that is named as a salt. This is one part of the list. Single values are uncertain here, since repeats match poorly.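 Human fetal ventral-midbrain neural progenitor line ReNCell VM, differentiated without mitogens. Images stained for doublecortin (early neurons) or tyrosine hydroxylase (dopaminergic neurons) were scored by blinded raters against untreated wells (0 = no change). Repeats and both raters were averaged, and compounds averaging 2 or higher were picked as hits for retesting.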
system: ReNCell VM; test: neuronal differentiation score (DCX+ cell fraction vs untreated, manual image score) (score (-3 to 3)); higher = more neuronal differentiation; settings: library: LOPAC; 2 uM; 2 weeks

Row | Compound | neuronal differentiation score
1 | CCCCCC(O)CCCC(=O)O (stereo unspecified) [5-hydroxydecanoic acid sodium] | inactive: 0
2 | CCCCCCCC/C=C\CCCCCCCC(=O)O [Oleic Acid] | inactive: 0
3 | N[C@@H](Cc1c[nH]c2ccccc12)C(=O)O [L-Tryptophan] | inactive: 0
4 | COc1ccc2cc([C@H](C)C(=O)O)ccc2c1 [(-)-Naproxen sodium] | inactive: 0
5 | CC1(C2CCCC2)Cc2cc(OCC(=O)O)c(Cl)c(Cl)c2C1=O (stereo unspecified) | inactive: 0
6 | NC(N)=NC(=O)c1nc(Cl)c(N2CCCCCC2)nc1N [5-(N,N-hexamethylene)amiloride] | inactive: 0
7 | C[C@H](Cc1ccc(O)c(O)c1)[C@@H](C)Cc1ccc(O)c(O)c1 | inactive: 0
8 | N[C@@H](Cc1c[nH]c2ccc(O)cc12)C(=O)O [5-Hydroxy-L-tryptophan] | inactive: 0
9 | CC[C@@H]1Cc2cc(O)ccc2C2=C1c1ccc(O)cc1C[C@H]2CC [(R,R)-cis-Diethyl tetrahydro-2,8-chrysenediol] | inactive: 0

same assay, conditions: library: Prestwick; 2 uM; 2 weeks

Row | Compound | neuronal differentiation score
10 | CCCCN(CCCC)CCC(O)c1cc2c(Cl)cc(Cl)cc2c2cc(C(F)(F)F)ccc12 (stereo unspecified) [Halofantrine hydrochloride] | inactive: 0
11 | COc1ccc2cc(CCC(C)=O)ccc2c1 [Nabumetone] | inactive: 0
12 | CC(C)(C)CC(C)(C)c1ccc(OCCOCC[N+](C)(C)Cc2ccccc2)cc1 [Benzethonium chloride] | inactive: 0
13 | CN(C)CCCC1(c2ccc(F)cc2)OCc2cc(C#N)ccc21 (stereo unspecified) [Citalopram Hydrobromide] | inactive: 0
14 | CN1CCN2c3ccccc3Cc3ccccc3C2C1 (stereo unspecified) [Mianserine hydrochloride] | inactive: 0
15 | NCCNCCNCCNCCN [Tetraethylenepentamine pentahydrochloride] | inactive: 0
16 | CCCCOc1ccc(C(=O)CCN2CCCCC2)cc1 [Dyclonine hydrochloride] | inactive: 0

A different layout for some results above:
Row	Compound	neuronal differentiation score
13	CN(C)CCCC1(c2ccc(F)cc2)OCc2cc(C#N)ccc21 (stereo unspecified) [Citalopram Hydrobromide]	inactive: 0
14	CN1CCN2c3ccccc3Cc3ccccc3C2C1 (stereo unspecified) [Mianserine hydrochloride]	inactive: 0
15	NCCNCCNCCNCCN [Tetraethylenepentamine pentahydrochloride]	inactive: 0

same assay, conditions: library: Spectrum; 2 uM; 2 weeks

Row | Compound | neuronal differentiation score
17 | COC(=O)C1=C(C)NC(C)=C(C(=O)OCC(C)C)C1c1ccccc1[N+](=O)[O-] (stereo unspecified) | inactive: 0
18 | COc1cccc(-c2cc(=O)c3cc(OC)ccc3o2)c1 | inactive: 0
19 | CC(CN(C)C)CN1c2ccccc2CCc2ccccc21 (stereo unspecified) | inactive: 0
20 | Cc1cccc2c3c(ccc12)C1=C(C(=O)C3=O)[C@@H](C)CO1 | inactive: 0
21 | CC(C)(Oc1ccc(C(=O)c2ccc(Cl)cc2)cc1)C(=O)O | inactive: 0
22 | COc1ccc2cc(C(C)C(=O)O)ccc2c1 (stereo unspecified) | inactive: -1
23 | COC1(C)CCC2OC2(C)CCC2C1CC2(C)C (stereo unspecified) | inactive: 0
24 | CC(C)(C)CC(C)(C)c1cc(Cc2cc(C(C)(C)CC(C)(C)C)cc(-n3nc4ccccc4n3)c2O)c(O)c(-n2nc3ccccc3n2)c1 | inactive: 0
25 | CC(=O)O[C@@H]1CC2C(C)(C)C(=O)C3OC3[C@]2(C)C2CC[C@@]3(C)[C@H](c4ccoc4)OC(=O)C4OC43[C@@]21C (stereo partly specified) | inactive: 0
26 | C[N+]1(C)[C@@H]2CC[C@H]1C[C@@H](OC(=O)C(O)c1ccccc1)C2 (stereo partly specified) | inactive: 0
27 | NCCCC(=O)O [gamma-AMINOBUTYRIC ACID] | inactive: 0
28 | NC(=O)N1c2ccccc2CC(=O)c2ccccc21 | inactive: 0
29 | CCCOc1cc(N)ccc1C(=O)OCCN(CC)CC | inactive: 0
30 | NS(=O)(=O)c1cc2c(cc1Cl)N=CNS2(=O)=O | inactive: 0
31 | O=c1cc(-c2ccc(O)cc2)oc2ccc(O)cc12 | inactive: 0
32 | COc1cc2c(cc1OC)C1C(=O)c3c(cc4c(c3O)C=CC(C)(C)O4)OC1CO2 (stereo not drawn) [beta-TOXICAROL] | inactive: 0

Looked up above.
`COc1cc2c(cc1OC)C1C(=O)c3c(cc4c(c3O)C=CC(C)(C)O4)OC1CO2` (stereo not drawn) [beta-TOXICAROL] – neuronal differentiation score: inactive: 0
`O=c1cc(-c2ccc(O)cc2)oc2ccc(O)cc12` – neuronal differentiation score: inactive: 0

same assay, conditions: library: Tocriscreen; 2 uM; 2 weeks

Row | Compound | neuronal differentiation score
33 | CCS(=O)(=O)N1CCC[C@@H]2CN3CCc4cc(OC)ccc4[C@@H]3C[C@@H]21 | inactive: 0
34 | C/C=C1\C(=O)C[C@H]2[C@@H]3CCC4=CC(=O)CC[C@]4(C)[C@H]3CC[C@]12C [Guggulsterone] | inactive: 0
35 | NC(C(=O)O)c1cc(O)cc(O)c1 (racemic) | inactive: 0
36 | NC(=O)N1C(=O)/C(=C(\O)c2cccs2)c2cc(Cl)ccc21 [Tenidap] | inactive: 0
37 | N#C/C(=C\c1ccc(O)c(O)c1)C(=O)NCCCc1ccccc1 | inactive: 0

system: ReNCell VM; test: dopaminergic neuron differentiation score (TH+ cell fraction vs untreated, manual image score) (score (0 to 3)); higher = more TH+ dopaminergic neuron differentiation; settings: library: LOPAC; 2 uM; 4 weeks; BDNF 10 ng/ml + GDNF 10 ng/ml

Row | Compound | dopaminergic neuron differentiation score
38 | CCCCCC(O)CCCC(=O)O (stereo unspecified) [5-hydroxydecanoic acid sodium] | inactive: 0
39 | CCCCCCCC/C=C\CCCCCCCC(=O)O [Oleic Acid] | inactive: 0
40 | N[C@@H](Cc1c[nH]c2ccccc12)C(=O)O [L-Tryptophan] | inactive: 0
41 | COc1ccc2cc([C@H](C)C(=O)O)ccc2c1 [(-)-Naproxen sodium] | inactive: 0
42 | CC1(C2CCCC2)Cc2cc(OCC(=O)O)c(Cl)c(Cl)c2C1=O (stereo unspecified) | inactive: 0
43 | NC(N)=NC(=O)c1nc(Cl)c(N2CCCCCC2)nc1N [5-(N,N-hexamethylene)amiloride] | inactive: 0
44 | C[C@H](Cc1ccc(O)c(O)c1)[C@@H](C)Cc1ccc(O)c(O)c1 | inactive: 0
45 | N[C@@H](Cc1c[nH]c2ccc(O)cc12)C(=O)O [5-Hydroxy-L-tryptophan] | inactive: 0
46 | CC[C@@H]1Cc2cc(O)ccc2C2=C1c1ccc(O)cc1C[C@H]2CC [(R,R)-cis-Diethyl tetrahydro-2,8-chrysenediol] | inactive: 0
